# Measured values taken from publication PMC10742089.
# By UniProt entry, the sequences of proteins in these tests, tags left out.
# UniProt P18754: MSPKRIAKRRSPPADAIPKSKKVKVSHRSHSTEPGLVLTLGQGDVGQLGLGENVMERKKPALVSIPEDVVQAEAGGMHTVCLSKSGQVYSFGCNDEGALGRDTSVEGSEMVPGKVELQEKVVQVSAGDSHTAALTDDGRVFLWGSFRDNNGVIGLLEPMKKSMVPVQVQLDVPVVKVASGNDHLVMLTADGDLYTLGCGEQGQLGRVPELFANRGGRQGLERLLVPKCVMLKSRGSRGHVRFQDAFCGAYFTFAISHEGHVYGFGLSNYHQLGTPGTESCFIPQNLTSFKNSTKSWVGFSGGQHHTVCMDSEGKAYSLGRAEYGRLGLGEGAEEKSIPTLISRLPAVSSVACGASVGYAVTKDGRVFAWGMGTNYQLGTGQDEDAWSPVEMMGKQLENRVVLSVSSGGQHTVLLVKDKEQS
# UniProt Q13242: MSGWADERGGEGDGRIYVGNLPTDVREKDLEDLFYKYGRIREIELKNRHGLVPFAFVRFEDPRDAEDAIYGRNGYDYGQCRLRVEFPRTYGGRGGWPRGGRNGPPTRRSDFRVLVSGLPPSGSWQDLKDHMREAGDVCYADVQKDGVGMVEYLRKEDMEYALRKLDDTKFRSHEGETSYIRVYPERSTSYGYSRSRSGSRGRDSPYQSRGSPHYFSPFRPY
# UniProt Q02880: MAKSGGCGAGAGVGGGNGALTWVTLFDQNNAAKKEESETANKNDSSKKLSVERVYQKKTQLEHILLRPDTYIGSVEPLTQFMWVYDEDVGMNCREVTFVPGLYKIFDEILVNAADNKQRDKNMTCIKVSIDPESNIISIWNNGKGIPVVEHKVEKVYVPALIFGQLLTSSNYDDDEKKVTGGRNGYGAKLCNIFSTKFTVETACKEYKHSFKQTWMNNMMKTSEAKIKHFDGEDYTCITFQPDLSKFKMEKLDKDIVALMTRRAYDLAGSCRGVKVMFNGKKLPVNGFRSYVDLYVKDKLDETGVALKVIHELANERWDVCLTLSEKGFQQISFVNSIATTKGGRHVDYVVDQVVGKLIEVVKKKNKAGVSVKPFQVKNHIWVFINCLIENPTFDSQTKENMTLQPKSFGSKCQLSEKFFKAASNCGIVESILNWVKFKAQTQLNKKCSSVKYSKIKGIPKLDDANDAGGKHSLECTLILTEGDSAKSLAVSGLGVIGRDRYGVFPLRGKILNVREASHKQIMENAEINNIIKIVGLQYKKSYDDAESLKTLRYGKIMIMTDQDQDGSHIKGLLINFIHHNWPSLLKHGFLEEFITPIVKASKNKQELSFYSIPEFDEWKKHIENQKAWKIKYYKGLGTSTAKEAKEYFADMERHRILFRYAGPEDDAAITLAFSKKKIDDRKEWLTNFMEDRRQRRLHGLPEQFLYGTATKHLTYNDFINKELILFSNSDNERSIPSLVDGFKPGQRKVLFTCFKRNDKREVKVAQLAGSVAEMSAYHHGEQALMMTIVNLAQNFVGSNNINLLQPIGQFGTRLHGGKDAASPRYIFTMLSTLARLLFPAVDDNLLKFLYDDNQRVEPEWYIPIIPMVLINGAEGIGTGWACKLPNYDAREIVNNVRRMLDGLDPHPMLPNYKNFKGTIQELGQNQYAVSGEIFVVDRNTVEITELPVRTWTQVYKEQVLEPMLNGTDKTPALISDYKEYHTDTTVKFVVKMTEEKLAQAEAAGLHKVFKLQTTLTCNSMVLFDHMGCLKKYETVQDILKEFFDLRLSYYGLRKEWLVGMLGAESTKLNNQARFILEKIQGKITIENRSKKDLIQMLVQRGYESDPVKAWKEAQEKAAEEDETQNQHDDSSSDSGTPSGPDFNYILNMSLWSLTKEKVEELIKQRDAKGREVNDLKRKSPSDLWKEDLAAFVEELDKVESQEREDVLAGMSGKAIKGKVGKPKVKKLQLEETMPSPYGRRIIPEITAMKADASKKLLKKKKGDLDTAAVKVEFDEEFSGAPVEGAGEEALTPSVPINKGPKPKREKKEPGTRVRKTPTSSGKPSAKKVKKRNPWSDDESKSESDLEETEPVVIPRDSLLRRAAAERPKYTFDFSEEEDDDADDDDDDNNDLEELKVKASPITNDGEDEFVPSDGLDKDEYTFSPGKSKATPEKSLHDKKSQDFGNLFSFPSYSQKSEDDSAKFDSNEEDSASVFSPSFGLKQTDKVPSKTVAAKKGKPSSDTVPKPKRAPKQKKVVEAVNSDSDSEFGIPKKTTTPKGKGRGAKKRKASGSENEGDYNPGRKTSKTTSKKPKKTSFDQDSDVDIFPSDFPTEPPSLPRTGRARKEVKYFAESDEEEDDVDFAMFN
# Target: mEGFP-iso6 (FMRP nuclear isoform iso6 fused to GFP) (human) (UniProt Q06787)
# Test: affinity purification with mass spectrometry; stringent conditions: GFP-Trap on whole-cell lysate of U2OS stably expressing GFP-iso6 or GFP-iso1, half the number of cells of the first screen, 6 GFP-free U2OS controls, <=1% FDR; cells mock-treated or treated with aphidicolin (APH) for 24 h
row,binding,Molecule
1,binds,"PPA2 (protein, UniProt Q9H2U2 33-334) ALYHTEERGQPCSQNYRLFFKNVTGHYISPFHDIPLKVNSKEENGIPMKKARNDEYENLFNMIVEIPRWTNAKMEIATKEPMNPIKQYVKDGKLRYVANIFPYKGYIWNYGTLPQTWEDPHEKDKSTNCFGDNDPIDVCEIGSKILSCGEVIHVKILGILALIDEGETDWKLIAINANDPEASKFHDIDDVKKFKPGYLEATLNWFRLYKVPDGKPENQFAFNGEFKNKAFALEVIKSTHQCWKALLMKKCNGGAINCTNVQISDSPFRCTQEEARSLVESVSSSPNKESNEEEQVWHFLGK"

# Target: mEGFP-iso6 (FMRP nuclear isoform iso6 fused to GFP) (human) (UniProt Q06787)
# Test: affinity purification with mass spectrometry; first screen (mild stringency): GFP-Trap magnetic agarose on whole-cell lysate of U2OS stably expressing GFP-iso6, lysate treated with turbonuclease, 2 h at 4 C; LC-MS/MS; SAINTexpress against 2 GFP-free U2OS controls, <1% FDR and fold change >1.5
row,Molecule,binding
1,BRCA2 (from UniProt P51587 1-3418),binds
2,ELAVL1 (from UniProt Q15717 1-326),binds
3,POLR1E (from UniProt Q9GZS1 1-419),binds
4,RCC1 (from UniProt P18754 1-421),binds
5,SMARCA5 (from UniProt O60264 1-1052),binds
6,SMARCD2 (from UniProt Q92925 1-531),binds
7,SMARCE1 (from UniProt Q969G3 1-411),binds
8,"DDX50 (protein, UniProt Q9BQ39 1-737) MPGKLLWGDIMELEAPLEESESQKKERQKSDRRKSRHHYDSDEKSETRENGVTDDLDAPKAKKSKMKEKLNGDTEEGFNRLSDEFSKSHKSRRKDLPNGDIDEYEKKSKRVSSLDTSTHKSSDNKLEETLTREQKEGAFSNFPISEETIKLLKGRGVTYLFPIQVKTFGPVYEGKDLIAQARTGTGKTFSFAIPLIERLQRNQETIKKSRSPKVLVLAPTRELANQVAKDFKDITRKLSVACFYGGTSYQSQINHIRNGIDILVGTPGRIKDHLQSGRLDLSKLRHVVLDEVDQMLDLGFAEQVEDIIHESYKTDSEDNPQTLLFSATCPQWVYKVAKKYMKSRYEQVDLVGKMTQKAATTVEHLAIQCHWSQRPAVIGDVLQVYSGSEGRAIIFCETKKNVTEMAMNPHIKQNAQCLHGDIAQSQREITLKGFREGSFKVLVATNVAARGLDIPEVDLVIQSSPPQDVESYIHRSGRTGRAGRTGICICFYQPRERGQLRYVEQKAGITFKRVGVPSTMDLVKSKSMDAIRSLASVSYAAVDFFRPSAQRLIEEKGAVDALAAALAHISGASSFEPRSLITSDKGFVTMTLESLEEIQDVSCAWKELNRKLSSNAVSQITRMCLLKGNMGVCFDVPTTESERLQAEWHDSDWILSVPAKLPEIEEYYDGNTSSNSRQRSGWSSGRSGRSGRSGGRSGGRSGRQSRQGSRSGSRQDGRRRSGNRNRSRSGGHKRSFD",binds
9,"DDX52 (protein, UniProt Q9Y2R4 1-599) MDVHDLFRRLGAGAKFDTRRFSADAARFQIGKRKYDFDSSEVLQGLDFFGNKKSVPGVCGASQTHQKPQNGEKKEESLTERKREQSKKKRKTMTSEIASQEEGATIQWMSSVEAKIEDKKVQRESKLTSGKLENLRKEKINFLRNKHKIHVQGTDLPDPIATFQQLDQEYKINSRLLQNILDAGFQMPTPIQMQAIPVMLHGRELLASAPTGSGKTLAFSIPILMQLKQPANKGFRALIISPTRELASQIHRELIKISEGTGFRIHMIHKAAVAAKKFGPKSSKKFDILVTTPNRLIYLLKQDPPGIDLASVEWLVVDESDKLFEDGKTGFRDQLASIFLACTSHKVRRAMFSATFAYDVEQWCKLNLDNVISVSIGARNSAVETVEQELLFVGSETGKLLAVRELVKKGFNPPVLVFVQSIERAKELFHELIYEGINVDVIHAERTQQQRDNTVHSFRAGKIWVLICTALLARGIDFKGVNLVINYDFPTSSVEYIHRIGRTGRAGNKGKAITFFTEDDKPLLRSVANVIQQAGCPVPEYIKGFQKLLSKQKKKMIKKPLERESISTTPKCFLEKAKDKQKKVTGQNSKKKVALEDKS",binds
10,"WDR46 (protein, UniProt O15213 1-610) METAPKPGKDVPPKKDKLQTKRKKPRRYWEEETVPTTAGASPGPPRNKKNRELRPQRPKNAYILKKSRISKKPQVPKKPREWKNPESQRGLSGTQDPFPGPAPVPVEVVQKFCRIDKSRKLPHSKAKTRSRLEVAEAEEEETSIKAARSELLLAEEPGFLEGEDGEDTAKICQADIVEAVDIASAAKHFDLNLRQFGPYRLNYSRTGRHLAFGGRRGHVAALDWVTKKLMCEINVMEAVRDIRFLHSEALLAVAQNRWLHIYDNQGIELHCIRRCDRVTRLEFLPFHFLLATASETGFLTYLDVSVGKIVAALNARAGRLDVMSQNPYNAVIHLGHSNGTVSLWSPAMKEPLAKILCHRGGVRAVAVDSTGTYMATSGLDHQLKIFDLRGTYQPLSTRTLPHGAGHLAFSQRGLLVAGMGDVVNIWAGQGKASPPSLEQPYLTHRLSGPVHGLQFCPFEDVLGVGHTGGITSMLVPGAGEPNFDGLESNPYRSRKQRQEWEVKALLEKVPAELICLDPRALAEVDVISLEQGKKEQIERLGYDPQAKAPFQPKPKQKGRSSTASLVKRKRKVMDEEHRDKVRQSLQQQHHKEAKAKPTGARPSALDRFVR",binds
11,"NOP9 (protein, UniProt Q86U38 1-636) MGQGPRSPHKVGRRFPAGGKRGRGAKGSGRPLPGRKRQPWPPPDGRSEPAPDSHPHLSPEALGYFRRALSALKEAPETGEERDLMVHNIMKEVETQALALSTNRTGSEMLQELLGFSPLKPLCRVWAALRSNLRTVACHRCGVHVLQSALLQLPRLLGSAAEEEEEEEEDGKDGPTETLEELVLGLAAEVCDDFLVYCGDTHGSFVVRTLLQVLGGTILESERARPRGSQSSEAQKTPAQECKPADFEVPETFLNRLQDLSSSFLKDIAVFITDKISSFCLQVALQVLHRKLPQFCAHLCNAVIGYLSTRGSSVDGSPLLLFLRDQTSSRLLEQVLLVLEPPRLQSLFEEHLQGQLQTLAAHPIANFPLQRLLDAVTTPELLSPVFEELSPVLEAVLAQGHPGVVIALVGACRRVGAYQAKVLQLLLEAFHCAEPSSRQVACVPLFATLMAYEVYYGLTEEEGAVPAEHQVAMAAARALGDVTVLGSLLLQHLLHFSTPGLVLRSLGALTGPQLLSLAQSPAGSHVLDAILTSPSVTRKLRRRVLQNLKGQYVALACSRHGSRVLDAIWSGAALRARKEIAAELGEQNQELIRDPFGHHVARNVALTTFLKRREAWEQQQGAVAKRRRALNSILED",binds

# Continued, values first:
row,binding,Molecule
1,binds,POLR1A (from UniProt O95602 1-1720)
2,binds,SRSF9 (from UniProt Q13242 1-221)
3,binds,SUPT16H (from UniProt Q9Y5B9 1-1047)
4,binds,TOP2B (from UniProt Q02880 1-1626)
5,binds,"SRSF2 (protein, UniProt Q01130 1-221) MSYGRPPPDVEGMTSLKVDNLTYRTSPDTLRRVFEKYGRVGDVYIPRDRYTKESRGFAFVRFHDKRDAEDAMDAMDGAVLDGRELRVQMARYGRPPDSHHSRRGPPPRRYGGGGYGRRSRSPRRRRRSRSRSRSRSRSRSRSRYSRSKSRSRTRSRSRSTSKSRSARRSKSKSSSVSRSRSRSRSRSRSRSPPPVSKRESKSRSRSKSPPKSPEEEGAVSS"
6,binds,"DDX51 (protein, UniProt Q8N8A6 1-666) MALFYVARYPGPDAAAAAGPEGAEAGAHGRARALLERLQSRARERQQQREPAQTEAAASTEPATRRRRRPRRRRRVNDAEPGSPEAPQGKRRKADGEDAGAESNEEAPGEPSAGSSEEAPGEPSAGSSEEAPGERSTSASAEAAPDGPALEEAAGPLVPGLVLGGFGKRKAPKVQPFLPRWLAEPNCVRRNVTEDLVPIEDIPDVHPDLQKQLRAHGISSYFPVQAAVIPALLESAACGFLVGRGGYRPSDLCVSAPTGSGKTLAFVIPVVQALLSRVVCHIRALVVLPTKELAQQVSKVFNIYTDATPLRVSLVTGQKSLAKEQESLVQKTADGYRCLADIVVATPGRLVDHIDQTPGFSLQQLRFLIIDEADRMIDSMHQSWLPRVVAAAFQSEDPADPCALLQRRQAQAVTAASTCCPQMPLQKLLFSATLTQNPEKLQQLGLHQPRLFSTGLAHRGLEDTDGDGDSGKYAFPVGLTHHYVPCSLSSKPLVVLHLVLEMGFSRVLCFTNSRENSHRLFLLVQAFGGVDVAEFSSRYGPGQRRMILKQFEQGKIQLLISTDATARGIDVQGVELVVNYDAPQYLRTYVHRVGRTARAGKTGQAFTLLLKVQERRFLRMLTEAGAPELQRHELSSKLLQPLVPRYEEALSQLEESVKEERKQRAA"

# These are yes or no findings as the source states them, for the method shown. Binding seen in cells or lysates may run through a third protein. Here binding means that the protein was enriched with, or labelled near, the bait; the list need not be complete.
